According to publication PMC10410440, “Preclinical PK investigation of a novel IDO1/TDO dual inhibitor—SHR9146 in mouse plasma and tissues by LC-MS/MS” (Frontiers in Oncology, 2023):
Where “and” joins values, the source holds several entries; their conditions need not be identical. Equal values may be shown once. Further values from the same series stand in other lists.

Test: Plasma pharmacokinetics of SHR9146 in mice (LC-MS/MS, non-compartmental analysis)
Type: in vivo, ICR mice
Method: ICR mice with body weight 16–26 g were supplied by Shanghai Lingchang Biotechnology Co., Ltd. (animal breeding license number SCXK (Shanghai) 2013-0018) and housed at Shanghai Institute of Materia Medica, Chinese Academy of Sciences [animal use license number SYXK (Shanghai) 2015-0027]. The mice used in this study were fasted overnight for 12 h but had free access to water. Food was supplied 4 h post-dose. All experiments in this study were conducted in accordance with the Guidelines for the Care and Use of Laboratory Animals of Shanghai Institute of Materia Medica, Chinese Academy of Sciences.
A total of 30 mice were randomly assigned into five groups with equal numbers, males and females. One group was intravenously administrated with 5 mg/kg SHR9146 dissolved in […] plus 95% saline (adjusted pH to 4.0) under sterile conditions. The remaining four groups were administered respectively with a single dose of 20 , 40, or 80 mg/kg or multiple doses of 20 mg/kg twice daily for 7 days, by oral gavage of SHR9146 dissolved in 0.5% CMC-Na. Blood samples were obtained from the fossa orbitalis vein at 15 and 30 min and 1.0, 2.0, 4.0, 6.0, 8.0, 10.0, and 24.0 h after oral gavage administration. An additional 5-min time point was included for iv injection, as well as the pre-drug administration time points on the fifth, sixth, and seventh days in the multiple-dose group. The blood samples were collected in EDTA K2 anticoagulant blood collection tubes and centrifuged at 1,000 rpm for 5 min at 4°C. The supernatant plasma samples were thus produced.
Briefly as follows, an aliquot of 25-μL plasma or tissue homogenate was spiked with 100 μL of internal standard solution (1 μg/mL for plasma, 0.2 μg/mL for tissue homogenate) and 300 μL of methanol added and vortex mixed for 60 s. The mixture was then centrifuged at 14,000 rpm at 4°C for 5.0 min, and the supernatant was diluted with methanol–water (4:1, v/v) in a ratio of 1:9 for the plasma or 1:1 for the tissue homogenate, and 5 μL of the resulting solution was injected for the LC-MS/MS analysis.
The pharmacokinetic parameters of SHR9146 in mouse plasma were estimated by Phoenix 1.4 software using a non-compartmental model.
The mean concentration–time curves of SHR9146 in mouse plasma after a single oral gavage dose of 20, 40, or 80 mg/kg, or a single intravenous dose of 5 mg/kg, or the 7th-day steady state after twice-daily multiple oral doses of 20 mg/kg are shown in Figure 5 (Table S6).

OCCn1cc(-c2ccc(N3CCC([C@H]4c5c(F)cccc5-c5cncn54)CC3)cc2)cn1 [SHR9146]
plasma drug concentration, individual mice #1-#6 (5 mg/kg i.v., 0.083 h): 6.501 µg/mL and 6.135 µg/mL and 7.070 µg/mL and 7.712 µg/mL and 5.854 µg/mL | plasma drug concentration, individual mice #1-#6 (5 mg/kg i.v., 0.25 h): 4.634 µg/mL and 5.530 µg/mL and 5.068 µg/mL and 5.867 µg/mL and 5.061 µg/mL | plasma drug concentration, individual mice #1-#6 (5 mg/kg i.v., 0.5 h): 3.814 µg/mL and 3.044 µg/mL and 3.947 µg/mL and 3.268 µg/mL and 3.049 µg/mL | plasma drug concentration, individual mice #1-#6 (5 mg/kg i.v., 1 h): 2.136 µg/mL and 3.488 µg/mL and 2.715 µg/mL and 3.587 µg/mL and 2.184 µg/mL | plasma drug concentration, individual mice #1-#6 (5 mg/kg i.v., 2 h): 0.498 µg/mL and 0.653 µg/mL and 0.503 µg/mL and 0.385 µg/mL and 0.588 µg/mL and 1.003 µg/mL | plasma drug concentration, individual mice #1-#6 (5 mg/kg i.v., 4 h): 0.061 μg/mL and 0.354 μg/mL and 0.073 μg/mL (2×) and 0.198 μg/mL | plasma drug concentration, individual mice #1-#6 (20 mg/kg i.g. bid, 7 days, 7th day, 0.25 h): 4.676 µg/mL and 7.420 µg/mL and 6.349 µg/mL and 6.700 µg/mL and 4.834 µg/mL | plasma drug concentration, individual mice #1-#6 (20 mg/kg i.g. bid, 7 days, 7th day, 0.5 h): 4.970 µg/mL and 8.803 µg/mL and 11.634 µg/mL and 11.051 µg/mL and 5.196 µg/mL and 6.469 µg/mL | plasma drug concentration, individual mice #1-#6 (20 mg/kg i.g. bid, 7 days, 7th day, 1 h): 9.924 µg/mL and 7.461 µg/mL and 7.708 µg/mL and 10.071 µg/mL and 11.514 µg/mL | plasma drug concentration, individual mice #1-#6 (20 mg/kg i.g. bid, 7 days, 7th day, 2 h): 3.968 µg/mL and 4.754 µg/mL and 8.083 µg/mL and 3.763 µg/mL and 5.945 µg/mL and 10.521 µg/mL | plasma drug concentration, individual mice #1-#6 (20 mg/kg i.g. bid, 7 days, 7th day, 3 h): 2.420 µg/mL and 2.321 µg/mL and 7.628 µg/mL and 3.494 µg/mL and 1.964 µg/mL and 1.194 µg/mL | plasma drug concentration, individual mice #1-#6 (20 mg/kg i.g. bid, 7 days, 7th day, 4 h): 2.144 µg/mL and 1.661 µg/mL and 0.809 µg/mL and 1.078 µg/mL and 1.098 µg/mL and 2.751 µg/mL | plasma drug concentration, individual mice #1-#6 (20 mg/kg i.g. bid, 7 days, 7th day, 6 h): 0.363 µg/mL and 0.277 µg/mL and 0.481 µg/mL and 0.091 µg/mL and 0.141 µg/mL and 1.368 µg/mL | plasma drug concentration, individual mice #1-#6 (20 mg/kg i.g. bid, 7 days, 7th day, 8 h): 0.077 µg/mL and 0.148 µg/mL and 0.055 µg/mL and 0.068 µg/mL | plasma drug concentration, individual mice #1-#6 (20 mg/kg i.g. bid, 7 days, 7th day, 10 h): 0.085 µg/mL | plasma drug concentration, individual mice #1-#6 (20 mg/kg i.g. single, 0.25 h): 4.318 µg/mL and 4.264 µg/mL and 10.424 µg/mL and 7.616 µg/mL and 13.439 µg/mL and 4.955 µg/mL | plasma drug concentration, individual mice #1-#6 (20 mg/kg i.g. single, 0.5 h): 12.205 µg/mL and 7.513 µg/mL and 6.779 µg/mL and 4.648 µg/mL and 12.863 µg/mL and 4.841 µg/mL | plasma drug concentration, individual mice #1-#6 (20 mg/kg i.g. single, 1 h): 4.121 µg/mL and 1.283 µg/mL and 4.054 µg/mL and 9.104 µg/mL and 4.762 µg/mL and 4.423 µg/mL | plasma drug concentration, individual mice #1-#6 (20 mg/kg i.g. single, 2 h): 2.104 µg/mL and 0.333 µg/mL and 8.420 µg/mL and 2.159 µg/mL and 9.708 µg/mL and 1.135 µg/mL | plasma drug concentration, individual mice #1-#6 (20 mg/kg i.g. single, 3 h): 6.753 µg/mL and 2.669 µg/mL and 0.821 µg/mL and 0.263 µg/mL and 4.318 µg/mL and 2.858 µg/mL | plasma drug concentration, individual mice #1-#6 (20 mg/kg i.g. single, 4 h): 0.148 µg/mL and 0.385 µg/mL and 2.256 µg/mL and 0.255 µg/mL and 0.112 µg/mL | plasma drug concentration, individual mice #1-#6 (20 mg/kg i.g. single, 6 h): 0.281 µg/mL | plasma drug concentration, individual mice #1-#6 (40 mg/kg i.g. single, 0.25 h): 0.213 µg/mL and 6.513 µg/mL and 5.997 µg/mL and 6.990 µg/mL and 5.088 µg/mL and 4.173 µg/mL | plasma drug concentration, individual mice #1-#6 (40 mg/kg i.g. single, 0.5 h): 9.747 µg/mL and 9.915 µg/mL and 0.706 µg/mL and 5.062 µg/mL and 0.282 µg/mL and 6.133 µg/mL | plasma drug concentration, individual mice #1-#6 (40 mg/kg i.g. single, 1 h): 14.150 µg/mL and 8.056 µg/mL and 18.587 µg/mL and 13.042 µg/mL and 5.372 µg/mL and 0.689 µg/mL | plasma drug concentration, individual mice #1-#6 (40 mg/kg i.g. single, 2 h): 0.719 µg/mL and 12.276 µg/mL and 9.415 µg/mL and 3.103 µg/mL and 2.389 µg/mL and 1.618 µg/mL | plasma drug concentration, individual mice #1-#6 (40 mg/kg i.g. single, 3 h): 2.305 µg/mL and 1.716 µg/mL and 1.334 µg/mL and 0.438 µg/mL and 0.715 µg/mL and 0.252 µg/mL | plasma drug concentration, individual mice #1-#6 (40 mg/kg i.g. single, 4 h): 3.921 µg/mL and 4.455 µg/mL and 5.669 µg/mL and 1.014 µg/mL and 10.453 µg/mL and 0.582 µg/mL | plasma drug concentration, individual mice #1-#6 (40 mg/kg i.g. single, 6 h): 0.545 µg/mL and 1.856 µg/mL and 0.492 µg/mL and 3.179 µg/mL | plasma drug concentration, individual mice #1-#6 (40 mg/kg i.g. single, 8 h): 0.331 µg/mL | plasma drug concentration, individual mice #1-#6 (80 mg/kg i.g. single, 0.25 h): 4.807 µg/mL and 6.532 µg/mL and 2.882 µg/mL and 9.761 µg/mL and 7.622 µg/mL and 5.181 µg/mL | plasma drug concentration, individual mice #1-#6 (80 mg/kg i.g. single, 0.5 h): 11.869 µg/mL and 11.106 µg/mL and 13.915 µg/mL and 11.362 µg/mL and 10.320 µg/mL | plasma drug concentration, individual mice #1-#6 (80 mg/kg i.g. single, 1 h): 12.846 µg/mL and 19.500 µg/mL and 0.446 µg/mL and 20.289 µg/mL and 23.386 µg/mL and 0.889 µg/mL | plasma drug concentration, individual mice #1-#6 (80 mg/kg i.g. single, 2 h): 2.807 µg/mL and 6.223 µg/mL and 0.769 µg/mL and 22.499 µg/mL and 16.613 µg/mL and 4.650 µg/mL | plasma drug concentration, individual mice #1-#6 (80 mg/kg i.g. single, 3 h): 0.671 µg/mL and 9.313 µg/mL and 2.798 µg/mL and 5.034 µg/mL and 8.033 µg/mL and 2.193 µg/mL | plasma drug concentration, individual mice #1-#6 (80 mg/kg i.g. single, 4 h): 4.657 µg/mL and 22.517 µg/mL and 0.715 µg/mL and 5.330 µg/mL and 19.633 µg/mL and 0.839 µg/mL | plasma drug concentration, individual mice #1-#6 (80 mg/kg i.g. single, 6 h): 0.088 µg/mL and 6.184 µg/mL and 7.238 µg/mL and 0.078 µg/mL | plasma drug concentration, individual mice #1-#6 (80 mg/kg i.g. single, 8 h): 0.090 µg/mL and 4.871 µg/mL and 2.260 µg/mL | plasma drug concentration, individual mice #1-#6 (80 mg/kg i.g. single, 10 h): 0.068 µg/mL and 7.993 µg/mL and 0.486 µg/mL and 0.080 µg/mL and 1.174 µg/mL and 0.415 µg/mL | plasma drug concentration, individual mice #1-#6 (80 mg/kg i.g. single, 24 h): 0.151 µg/mL
